One assay deals with Flag-USP28 (UniProt Q96RU2). Put plainly: co-IP; ectopically expressed USP28 in 293T cells (Fig. S2 E-G); who was precipitated is not shown.
Assay [1] deals with USP28 (endogenous) (human (endogenous in 293T)) (UniProt Q96RU2). Put plainly: co-IP; immunoprecipitation of endogenous USP28 from 293T lysate (ELB buffer, 250 mM NaCl), immunoblot of the partner. Background: Immunoblotting shows a protein as a band on a membrane.

Protein sequences, listed by entry. Tags and fused reporters are not part of them.
UniProt Q96RU2: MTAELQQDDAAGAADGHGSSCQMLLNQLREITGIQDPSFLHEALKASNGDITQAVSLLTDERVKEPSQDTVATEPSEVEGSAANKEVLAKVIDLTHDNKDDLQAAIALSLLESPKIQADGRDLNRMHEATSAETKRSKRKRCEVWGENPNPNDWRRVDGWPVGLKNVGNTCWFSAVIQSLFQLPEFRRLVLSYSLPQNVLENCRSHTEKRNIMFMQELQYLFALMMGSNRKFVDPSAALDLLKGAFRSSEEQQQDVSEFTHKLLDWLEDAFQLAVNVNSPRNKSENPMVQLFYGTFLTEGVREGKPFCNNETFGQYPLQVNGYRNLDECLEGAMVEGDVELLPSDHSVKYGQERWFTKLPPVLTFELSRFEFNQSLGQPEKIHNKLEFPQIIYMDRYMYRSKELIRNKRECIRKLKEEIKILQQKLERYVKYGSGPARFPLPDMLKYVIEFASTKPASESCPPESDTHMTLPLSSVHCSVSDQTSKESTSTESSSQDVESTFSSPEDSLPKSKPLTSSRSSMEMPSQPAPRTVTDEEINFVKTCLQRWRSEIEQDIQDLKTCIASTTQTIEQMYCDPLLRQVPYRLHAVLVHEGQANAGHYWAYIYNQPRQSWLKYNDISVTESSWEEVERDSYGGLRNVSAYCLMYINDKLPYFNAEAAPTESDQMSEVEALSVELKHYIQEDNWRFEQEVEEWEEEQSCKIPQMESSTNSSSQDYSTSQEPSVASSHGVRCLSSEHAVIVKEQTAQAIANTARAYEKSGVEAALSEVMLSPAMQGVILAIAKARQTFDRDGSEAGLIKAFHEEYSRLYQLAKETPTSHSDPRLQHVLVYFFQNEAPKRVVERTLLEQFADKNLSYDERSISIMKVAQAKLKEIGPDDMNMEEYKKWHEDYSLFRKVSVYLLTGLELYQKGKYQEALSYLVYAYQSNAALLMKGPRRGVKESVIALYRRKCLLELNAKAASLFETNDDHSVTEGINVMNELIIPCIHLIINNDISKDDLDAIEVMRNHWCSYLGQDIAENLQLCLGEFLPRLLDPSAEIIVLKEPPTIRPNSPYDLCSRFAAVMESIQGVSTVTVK
UniProt Q969H0: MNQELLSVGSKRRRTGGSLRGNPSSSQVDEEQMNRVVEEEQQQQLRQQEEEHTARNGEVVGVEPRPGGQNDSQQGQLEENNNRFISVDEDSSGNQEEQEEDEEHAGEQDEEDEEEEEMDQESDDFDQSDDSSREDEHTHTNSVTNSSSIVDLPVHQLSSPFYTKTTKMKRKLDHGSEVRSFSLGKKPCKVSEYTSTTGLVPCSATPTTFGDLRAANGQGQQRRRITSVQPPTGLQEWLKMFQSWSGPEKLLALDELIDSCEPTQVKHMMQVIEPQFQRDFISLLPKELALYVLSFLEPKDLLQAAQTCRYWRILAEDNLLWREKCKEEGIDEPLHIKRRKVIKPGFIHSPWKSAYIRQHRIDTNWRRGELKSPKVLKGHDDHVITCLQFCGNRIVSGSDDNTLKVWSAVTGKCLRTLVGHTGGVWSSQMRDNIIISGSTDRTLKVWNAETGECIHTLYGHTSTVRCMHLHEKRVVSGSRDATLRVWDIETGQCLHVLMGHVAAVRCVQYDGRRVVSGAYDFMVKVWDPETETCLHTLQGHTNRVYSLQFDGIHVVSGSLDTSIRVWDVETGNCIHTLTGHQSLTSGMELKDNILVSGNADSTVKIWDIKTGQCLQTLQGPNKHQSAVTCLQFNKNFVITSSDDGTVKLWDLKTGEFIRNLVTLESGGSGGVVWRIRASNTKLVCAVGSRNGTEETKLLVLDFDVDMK

These are yes or no findings as the source states them, for the method shown. Binding seen in cells or lysates may run through a third protein. Some binding calls cover weakened binding; strength is not graded here.

For “CRAF (from UniProt P04049 1-648) (enzyme)”, the binding result (with Flag-USP28; in assay [1]) was “binds” throughout. “FBW7 (endogenous) (from UniProt Q969H0 1-707)”: the binding entry in assay [1] is reported as “binds”.

For the origin of these results see publication PMC6028519.
